Source: paper PMC10435237
These are yes or no findings as the source states them, for the method shown. Binding seen in cells or lysates may run through a third protein. Some entries that bind do so weakly or less than the wild type.

The chains behind the UniProt entries cited, without tags or fusion partners. Where a name states a change or a piece, a line headed by the entry shows the natural chain unless it says otherwise.
UniProt Q86U44: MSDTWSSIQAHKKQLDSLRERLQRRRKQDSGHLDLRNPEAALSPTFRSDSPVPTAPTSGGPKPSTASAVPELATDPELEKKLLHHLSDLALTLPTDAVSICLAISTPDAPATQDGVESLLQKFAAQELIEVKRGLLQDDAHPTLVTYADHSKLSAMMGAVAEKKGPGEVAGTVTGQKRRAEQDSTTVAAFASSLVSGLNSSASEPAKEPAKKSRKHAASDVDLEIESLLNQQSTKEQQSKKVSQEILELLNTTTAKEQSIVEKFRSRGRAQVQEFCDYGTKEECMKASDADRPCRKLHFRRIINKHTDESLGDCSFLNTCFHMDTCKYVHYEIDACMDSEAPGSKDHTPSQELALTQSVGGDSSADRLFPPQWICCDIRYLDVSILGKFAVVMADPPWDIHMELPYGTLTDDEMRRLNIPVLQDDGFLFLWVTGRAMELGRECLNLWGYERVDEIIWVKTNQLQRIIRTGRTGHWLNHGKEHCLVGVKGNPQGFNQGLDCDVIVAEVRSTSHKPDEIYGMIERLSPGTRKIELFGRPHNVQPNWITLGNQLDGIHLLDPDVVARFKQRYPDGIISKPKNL
UniProt O75832: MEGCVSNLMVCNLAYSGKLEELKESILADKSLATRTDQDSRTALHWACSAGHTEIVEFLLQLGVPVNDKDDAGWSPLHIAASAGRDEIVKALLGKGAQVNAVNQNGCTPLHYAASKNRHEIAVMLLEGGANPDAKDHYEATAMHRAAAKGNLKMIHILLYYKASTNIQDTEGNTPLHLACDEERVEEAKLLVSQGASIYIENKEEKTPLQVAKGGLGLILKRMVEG
UniProt P62195: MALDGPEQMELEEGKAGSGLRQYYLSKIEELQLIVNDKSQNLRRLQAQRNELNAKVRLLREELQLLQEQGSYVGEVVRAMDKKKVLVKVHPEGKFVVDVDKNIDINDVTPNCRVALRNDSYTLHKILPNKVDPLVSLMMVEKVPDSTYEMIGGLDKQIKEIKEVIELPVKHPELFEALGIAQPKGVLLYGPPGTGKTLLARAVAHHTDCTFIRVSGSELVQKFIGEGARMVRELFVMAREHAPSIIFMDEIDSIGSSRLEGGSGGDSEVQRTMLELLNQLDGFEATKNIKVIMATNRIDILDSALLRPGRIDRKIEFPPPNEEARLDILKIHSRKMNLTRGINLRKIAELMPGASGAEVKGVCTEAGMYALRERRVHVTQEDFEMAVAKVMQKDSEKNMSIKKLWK
UniProt P17980: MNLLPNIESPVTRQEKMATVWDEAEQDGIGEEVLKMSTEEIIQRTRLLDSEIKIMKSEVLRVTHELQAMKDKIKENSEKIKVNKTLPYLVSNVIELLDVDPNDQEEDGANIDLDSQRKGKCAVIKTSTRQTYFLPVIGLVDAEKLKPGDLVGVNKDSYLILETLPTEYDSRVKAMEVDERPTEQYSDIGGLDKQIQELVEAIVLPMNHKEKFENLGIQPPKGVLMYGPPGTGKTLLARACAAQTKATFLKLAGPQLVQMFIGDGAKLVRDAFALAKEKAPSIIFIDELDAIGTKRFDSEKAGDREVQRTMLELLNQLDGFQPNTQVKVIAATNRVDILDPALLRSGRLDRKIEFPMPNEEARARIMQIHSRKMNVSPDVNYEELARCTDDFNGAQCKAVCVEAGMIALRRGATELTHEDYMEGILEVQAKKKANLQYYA

Legend:
METTL3-WT-Flag (human) [1] = molecular target: METTL3-WT-Flag (human) (UniProt Q86U44); experiment: co-IP; T47D cells infected with METTL3-Flag or control vector; IP of METTL3-Flag, immunoblot (Figure 7g)
METTL3-WT-Flag (human) [2] = molecular target: METTL3-WT-Flag (human) (UniProt Q86U44); experiment: co-IP; 293T cells with METTL3 shRNA, transfected with full-length METTL3 or its truncations 1–238 and 239–580 (Figure 5e, Figure 5—figure supplement 1a–c)
METTL14, transfected = METTL14, transfected (UniProt Q9HCE5); experiment: co-IP; 293T cells transfected with METTL3, METTL14 or WTAP containing different tags (Figures 5a, c, g-k); with or without RNase or DNase (5c); with or without shRNA against METTL3 (5g, 5i), METTL14 (5h) or WTAP (5j, 5k); lysis in EBC buffer, washes in NETN buffer

Row | binding (METTL3-WT-Flag (human) [1]) | Molecule | also measured
1 | binds | PSMD10 (from UniProt O75832 1-226) | –
2 | binds | PSMC5 (from UniProt P62195 1-406) | –
3 | binds | PSMC3 (from UniProt P17980 1-439) | –
4 | – | METTL3 C-terminal (239–580) truncation (from UniProt Q86U44 239-580) (domain or fragment) | binding (METTL3-WT-Flag (human) [2]): binds
5 | – | METTL14, transfected (protein, UniProt Q9HCE5 1-456) MDSRLQEIRERQKLRRQLLAQQLGAESADSIGAVLNSKDEQREIAETRETCRASYDTSAPNAKRKYLDEGETDEDKMEEYKDELEMQQDEENLPYEEEIYKDSSTFLKGTQSLNPHNDYCQHFVDTGHRPQNFIRDVGLADRFEEYPKLRELIRLKDELIAKSNTPPMYLQADIEAFDIRELTPKFDVILLEPPLEEYYRETGITANEKCWTWDDIMKLEIDEIAAPRSFIFLWCGSGEGLDLGRVCLRKWGYRRCEDICWIKTNKNNPGKTKTLDPKAVFQRTKEHCLMGIKGTVKRSTDGDFIHANVDIDLIITEEPEIGNIEKPVEIFHIIEHFCLGRRRLHLFGRDSTIRPGWLTVGPTLTNSNYNAETYASYFSAPNSYLTGCTEEIERLRPKSPPPKSKSDRGGGAPRGGGRGGTSAGRGRERNRSNFRGERGGFRGGRGGAHRGGFPPR | binding (METTL14, transfected): binds
